Binding data for two substances are collected here from PMC11233601.

Chains of the proteins cited; added tags and fusions are not shown.
UniProt Q9DB52: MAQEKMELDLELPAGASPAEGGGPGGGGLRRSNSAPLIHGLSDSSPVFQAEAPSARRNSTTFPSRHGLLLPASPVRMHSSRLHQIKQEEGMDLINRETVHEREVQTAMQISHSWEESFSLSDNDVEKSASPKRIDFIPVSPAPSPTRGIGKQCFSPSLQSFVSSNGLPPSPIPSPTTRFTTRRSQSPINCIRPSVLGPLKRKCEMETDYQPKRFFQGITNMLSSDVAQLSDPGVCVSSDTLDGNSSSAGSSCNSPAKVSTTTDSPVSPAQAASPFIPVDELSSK

Changes are numbered by the printed parent chain. These are yes or no findings as the source states them, for the method shown. In cells and extracts the contact can be indirect. Some results given as binding are weak or reduced against the parent protein; the word gives no strength. For some of these results: Where a sequence is shown, tags or fusion partners need not be part of it.

One assay deals with T1, Myc-B55α C239G (UniProt P63151).
T1 sequence: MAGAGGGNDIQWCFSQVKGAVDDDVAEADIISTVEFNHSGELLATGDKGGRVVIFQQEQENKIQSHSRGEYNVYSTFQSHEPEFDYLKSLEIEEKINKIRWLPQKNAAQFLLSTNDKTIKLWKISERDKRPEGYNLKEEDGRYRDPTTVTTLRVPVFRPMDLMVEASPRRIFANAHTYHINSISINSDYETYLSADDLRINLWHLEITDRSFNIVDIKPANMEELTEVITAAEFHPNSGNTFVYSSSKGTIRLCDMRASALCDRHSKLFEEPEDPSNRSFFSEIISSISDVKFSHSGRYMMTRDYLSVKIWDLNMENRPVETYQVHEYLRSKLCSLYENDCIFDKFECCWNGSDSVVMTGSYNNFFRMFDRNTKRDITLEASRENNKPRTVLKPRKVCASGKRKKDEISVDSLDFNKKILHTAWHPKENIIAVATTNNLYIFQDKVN
The assay is described as follows: co-IP; HEK293T cotransfected with FLAG-FAM122A and Myc-B55α WT and mutants; anti-Myc and anti-FLAG beads 3 h or overnight at 4 °C, washes with DIP lysis buffer, western blot. (A western blot detects proteins with antibodies after separation by electrophoresis.)

Another assay addresses T2, Myc-B55α D197K (UniProt P63151).
T2 sequence: T1 sequence with D197K, G239C
Described as above.

The target in another assay is T3, Myc-B55α wild type (UniProt P63151).
T3 sequence: T1 sequence with G239C
Described as above.

Another assay deals with T4, B55α-N-FAST (UniProt P63151).
T4 sequence: T1 sequence with G239C
The assay is described as follows: split reporter; Split-FAST: B55α-N-FAST and FAM122A-C-FAST10 co-transfected in U-2 OS cells, HMBR fluorogen added 48 h later, fluorescence microscopy.

For “murine FLAG-FAM122A wild type (from UniProt Q9DB52 1-284)”, the binding entry is “binds” with Myc-B55α C239G, “no binding” with Myc-B55α D197K and “binds” with Myc-B55α wild type.

With “FAM122A-C-FAST10 (from UniProt Q9DB52 1-284)”, the binding entry with B55α-N-FAST was “binds”.
